These are yes or no findings as the source states them, for the method shown. Binding seen in cells or lysates may run through a third protein. Some results given as binding are weak or reduced against the parent protein; the word gives no strength.
Assays:
Test in all cases: co-IP; in vivo co-immunoprecipitation from murine testes: antibodies specific for PABPC1, PABPC2, SF3B3 or HNRNPM used for IP, Western blot with mouse monoclonal anti-RANBP9 antibody; IgG as negative control
[1] = target: T1, splicing factor SF3B3 (mouse (endogenous in testis)) (UniProt Q921M3)
T1 sequence: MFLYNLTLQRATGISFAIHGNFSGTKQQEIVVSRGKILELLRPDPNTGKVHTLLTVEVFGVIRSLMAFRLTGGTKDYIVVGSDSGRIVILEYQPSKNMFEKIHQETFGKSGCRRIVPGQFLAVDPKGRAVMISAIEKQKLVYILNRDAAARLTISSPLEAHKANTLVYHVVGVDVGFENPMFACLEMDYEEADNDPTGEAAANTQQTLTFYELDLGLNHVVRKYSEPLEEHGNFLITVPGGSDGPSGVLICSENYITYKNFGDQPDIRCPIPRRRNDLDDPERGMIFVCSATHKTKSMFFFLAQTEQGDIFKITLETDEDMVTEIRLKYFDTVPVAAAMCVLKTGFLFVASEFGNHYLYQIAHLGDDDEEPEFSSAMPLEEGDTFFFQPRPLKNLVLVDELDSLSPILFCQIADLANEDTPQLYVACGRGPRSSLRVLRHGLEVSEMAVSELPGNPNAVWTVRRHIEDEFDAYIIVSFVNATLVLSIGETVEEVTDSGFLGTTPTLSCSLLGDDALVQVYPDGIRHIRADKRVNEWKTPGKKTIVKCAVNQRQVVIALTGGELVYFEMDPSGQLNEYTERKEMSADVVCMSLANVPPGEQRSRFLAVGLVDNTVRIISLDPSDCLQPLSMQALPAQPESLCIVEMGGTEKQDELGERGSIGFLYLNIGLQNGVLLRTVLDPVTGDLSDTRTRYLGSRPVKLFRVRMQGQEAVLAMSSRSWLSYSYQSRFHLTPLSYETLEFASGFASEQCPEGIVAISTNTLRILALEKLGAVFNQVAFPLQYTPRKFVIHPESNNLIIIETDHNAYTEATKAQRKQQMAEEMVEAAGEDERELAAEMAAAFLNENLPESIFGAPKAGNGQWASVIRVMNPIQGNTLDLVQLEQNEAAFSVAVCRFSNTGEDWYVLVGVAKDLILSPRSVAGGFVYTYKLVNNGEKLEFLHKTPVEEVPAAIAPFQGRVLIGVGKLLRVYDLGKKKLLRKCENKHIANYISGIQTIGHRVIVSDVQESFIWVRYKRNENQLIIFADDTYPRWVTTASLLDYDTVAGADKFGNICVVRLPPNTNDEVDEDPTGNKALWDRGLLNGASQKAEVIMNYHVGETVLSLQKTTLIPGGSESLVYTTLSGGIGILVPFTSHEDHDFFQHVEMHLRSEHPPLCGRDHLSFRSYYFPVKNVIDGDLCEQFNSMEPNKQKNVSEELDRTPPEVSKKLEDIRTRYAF

Amino acid sequences for entries named in this document (tags omitted).
UniProt Q62029: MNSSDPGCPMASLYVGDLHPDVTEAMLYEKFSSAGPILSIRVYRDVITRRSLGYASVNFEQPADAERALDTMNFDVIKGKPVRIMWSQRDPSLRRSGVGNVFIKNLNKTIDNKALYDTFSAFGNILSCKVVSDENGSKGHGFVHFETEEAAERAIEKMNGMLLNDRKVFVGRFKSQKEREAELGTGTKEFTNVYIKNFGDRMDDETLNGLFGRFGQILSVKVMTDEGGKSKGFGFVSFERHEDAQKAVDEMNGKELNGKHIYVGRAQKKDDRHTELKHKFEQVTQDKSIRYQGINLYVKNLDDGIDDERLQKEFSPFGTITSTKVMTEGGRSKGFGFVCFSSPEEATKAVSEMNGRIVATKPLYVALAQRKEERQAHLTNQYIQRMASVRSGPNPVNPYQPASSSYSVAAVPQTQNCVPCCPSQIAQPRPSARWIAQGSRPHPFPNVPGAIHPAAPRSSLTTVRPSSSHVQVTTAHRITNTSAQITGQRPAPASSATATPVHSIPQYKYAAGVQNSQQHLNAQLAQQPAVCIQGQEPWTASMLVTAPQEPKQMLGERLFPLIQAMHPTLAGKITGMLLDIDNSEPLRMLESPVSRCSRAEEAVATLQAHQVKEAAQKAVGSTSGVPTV
UniProt P29341: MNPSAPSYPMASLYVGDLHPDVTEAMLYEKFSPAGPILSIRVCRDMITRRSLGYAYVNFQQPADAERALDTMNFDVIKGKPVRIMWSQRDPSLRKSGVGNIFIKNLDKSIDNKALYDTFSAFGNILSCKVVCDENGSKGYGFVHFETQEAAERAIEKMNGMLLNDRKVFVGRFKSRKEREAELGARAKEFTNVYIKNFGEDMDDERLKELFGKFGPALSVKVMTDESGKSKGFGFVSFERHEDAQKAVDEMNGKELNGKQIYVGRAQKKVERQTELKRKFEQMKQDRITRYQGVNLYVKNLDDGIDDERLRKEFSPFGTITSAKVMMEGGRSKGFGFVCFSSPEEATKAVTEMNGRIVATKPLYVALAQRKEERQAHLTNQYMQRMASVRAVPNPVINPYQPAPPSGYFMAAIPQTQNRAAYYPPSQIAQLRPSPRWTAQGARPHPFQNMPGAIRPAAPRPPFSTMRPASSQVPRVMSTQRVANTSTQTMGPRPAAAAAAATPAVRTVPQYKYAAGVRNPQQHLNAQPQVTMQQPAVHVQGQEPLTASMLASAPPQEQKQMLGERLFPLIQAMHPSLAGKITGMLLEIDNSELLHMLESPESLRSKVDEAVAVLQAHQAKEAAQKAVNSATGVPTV
UniProt P69566: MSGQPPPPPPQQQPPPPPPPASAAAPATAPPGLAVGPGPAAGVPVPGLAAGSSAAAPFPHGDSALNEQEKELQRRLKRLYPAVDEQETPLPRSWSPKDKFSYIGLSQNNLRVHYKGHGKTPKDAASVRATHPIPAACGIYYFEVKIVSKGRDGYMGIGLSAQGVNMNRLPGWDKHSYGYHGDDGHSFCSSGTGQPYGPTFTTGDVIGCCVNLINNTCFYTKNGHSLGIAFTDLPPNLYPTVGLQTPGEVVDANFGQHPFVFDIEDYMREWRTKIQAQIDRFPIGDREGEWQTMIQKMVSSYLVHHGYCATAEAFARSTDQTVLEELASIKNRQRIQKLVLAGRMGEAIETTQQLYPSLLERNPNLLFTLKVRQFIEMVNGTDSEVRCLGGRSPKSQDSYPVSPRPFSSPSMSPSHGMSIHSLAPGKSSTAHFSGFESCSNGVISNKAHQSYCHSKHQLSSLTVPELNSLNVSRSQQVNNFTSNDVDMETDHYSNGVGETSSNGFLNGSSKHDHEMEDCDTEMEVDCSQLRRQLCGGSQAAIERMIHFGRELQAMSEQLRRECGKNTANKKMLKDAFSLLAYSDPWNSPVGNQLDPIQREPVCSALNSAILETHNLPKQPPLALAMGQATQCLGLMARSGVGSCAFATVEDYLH

[2] = target: poly(A) binding protein PABPC2 (mouse (endogenous in testis)) (UniProt Q62029)
[3] = target: poly(A) binding protein PABPC1 (mouse (endogenous in testis)) (UniProt P29341)
[4] = target: T2, splicing factor HNRNPM (mouse (endogenous in testis)) (UniProt Q9D0E1)
T2 sequence: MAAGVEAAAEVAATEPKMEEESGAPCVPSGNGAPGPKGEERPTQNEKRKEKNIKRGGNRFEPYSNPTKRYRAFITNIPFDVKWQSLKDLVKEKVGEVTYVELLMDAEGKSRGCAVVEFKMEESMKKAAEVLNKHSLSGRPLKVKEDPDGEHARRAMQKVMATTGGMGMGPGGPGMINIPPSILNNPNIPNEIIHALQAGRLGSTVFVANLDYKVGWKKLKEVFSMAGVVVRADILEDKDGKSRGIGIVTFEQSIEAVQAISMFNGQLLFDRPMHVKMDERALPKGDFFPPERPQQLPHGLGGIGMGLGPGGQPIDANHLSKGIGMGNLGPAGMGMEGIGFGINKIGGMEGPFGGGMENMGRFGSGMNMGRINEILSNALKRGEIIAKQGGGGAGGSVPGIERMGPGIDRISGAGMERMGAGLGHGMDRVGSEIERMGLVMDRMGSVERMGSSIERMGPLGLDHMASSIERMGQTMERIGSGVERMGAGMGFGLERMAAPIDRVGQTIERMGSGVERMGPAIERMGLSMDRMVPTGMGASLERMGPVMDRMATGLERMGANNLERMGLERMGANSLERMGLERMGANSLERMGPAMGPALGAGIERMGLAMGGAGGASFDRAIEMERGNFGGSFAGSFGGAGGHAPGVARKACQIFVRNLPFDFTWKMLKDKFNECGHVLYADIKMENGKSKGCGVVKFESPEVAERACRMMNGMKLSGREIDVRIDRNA

- binding [1]: binds
- binding [2]: binds
- binding [3]: binds
- binding [4]: binds
Substance: RAN-binding protein 9 (RANBP9) (from UniProt P69566 1-653)

From PMC4256260
